PubChem BioAssay AID504784 | Drosophila RNAi Screening Center, 2011
Assay: 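Genome-wide knock-down for genes giving too much or too little stored lipid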 (primary screen). Cell system: Drosophila Kc167 embryonic cells. Reagents: long dsRNA against Drosophila genes, about 250 ng dsRNA per well. Duration: 4 days. Conditions: cells fed 400 µM oleic acid bound to BSA. Measured: 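Microscope images give a droplet-to-nucleus area ratio, taken as log and converted to a screen-wide B-score; higher values mean greater lipid storage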. Scale: droplet/nuclear area B-score: higher = more stored lipid (overstorage).
The deposit covers about 17,000 reagents; below is a random part of those that have a named target and a result. 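Each column is one replicate's B-score; the combined score over replicates was not deposited, so single values may mislead.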 Further read-outs or replicates are left out here. No sequences are given here.

With knock-down of Rs1 [DRSC05945], the screen gave droplet/nuclear area B-score, replicate 1 = -0.752.
CG9997 [DRSC16591] showed droplet/nuclear area B-score, replicate 1 = -1.23.
Silencing of nwk [DRSC10442] resulted in: droplet/nuclear area B-score, replicate 1 = 1.23.
Against Sfxn1-3 [DRSC12183], the entry reads droplet/nuclear area B-score, replicate 1 = 2.47.
For bsk [DRSC03499], the entry reads droplet/nuclear area B-score, replicate 1 = -0.991.
CG12608 [DRSC19472] scored droplet/nuclear area B-score, replicate 1 = -1.64.
Men-b [DRSC16736] scored droplet/nuclear area B-score, replicate 1 = 1.11.
Silencing of CRMP [DRSC12073] resulted in: droplet/nuclear area B-score, replicate 1 = -0.93.
Depletion of CRMP [DRSC12345] gave: droplet/nuclear area B-score, replicate 1 = 0.0381.
After knock-down of Cpr76Bb [DRSC11061], the record shows droplet/nuclear area B-score, replicate 1 = 1.98.
Against Cpr76Bb [DRSC22870], the entry reads droplet/nuclear area B-score, replicate 1 = -0.525.
With knock-down of CG13376 [DRSC17901] the results were droplet/nuclear area B-score, replicate 1 = -0.964.
CG14414 [DRSC19599] showed droplet/nuclear area B-score, replicate 1 = -0.019.
Silencing of Polr2L [DRSC14630] gave: droplet/nuclear area B-score, replicate 1 = 1.91.
CG8349 [DRSC03083] gave droplet/nuclear area B-score, replicate 1 = 1.09.
After knock-down of eEF1delta [DRSC02790] the results were droplet/nuclear area B-score, replicate 1 = -0.993.
For CG8237 [DRSC07119] the deposit lists droplet/nuclear area B-score, replicate 1 = 2.27.
Depletion of E(spl)mbeta-HLH [DRSC16697] resulted in: droplet/nuclear area B-score, replicate 1 = -1.45.
Arr2 [DRSC09670] gave droplet/nuclear area B-score, replicate 1 = 0.924.
Depletion of Gar1 [DRSC04441] gave: droplet/nuclear area B-score, replicate 1 = 0.0805.
Against mey [DRSC14468], the values are droplet/nuclear area B-score, replicate 1 = 0.00751.
For Atg16 [DRSC15052], the values are droplet/nuclear area B-score, replicate 1 = -1.1.
Depletion of Atg16 [DRSC15300] gave: droplet/nuclear area B-score, replicate 1 = -1.78.
Depletion of Atg16 [DRSC15375] gave: droplet/nuclear area B-score, replicate 1 = -1.34.
Silencing of CG11309 [DRSC11650] gave: droplet/nuclear area B-score, replicate 1 = 1.27.
With knock-down of CG7974 [DRSC08607], the record shows droplet/nuclear area B-score, replicate 1 = -0.791.
For KdelR [DRSC03353] the deposit lists droplet/nuclear area B-score, replicate 1 = 0.551.
After knock-down of CG8774 [DRSC16445] the results were droplet/nuclear area B-score, replicate 1 = 0.224.
Knock-down of Egfrap [DRSC09963] came out at: droplet/nuclear area B-score, replicate 1 = -0.255.
Egfrap [DRSC09964] gave droplet/nuclear area B-score, replicate 1 = -0.556.
Kdm4B [DRSC06862] gave droplet/nuclear area B-score, replicate 1 = -0.0258.
Silencing of lqf [DRSC11363] resulted in: droplet/nuclear area B-score, replicate 1 = 0.326.
With knock-down of CG11741 [DRSC14367] the results were droplet/nuclear area B-score, replicate 1 = 0.471.
Against CG18744 [DRSC15381] the deposit lists droplet/nuclear area B-score, replicate 1 = -0.315.
Depletion of CG31686 (retired record) [DRSC00102] resulted in: droplet/nuclear area B-score, replicate 1 = 0.157.
Against Tsp68C [DRSC09295] the deposit lists droplet/nuclear area B-score, replicate 1 = -1.78.
For Polr3E [DRSC11880], the values are droplet/nuclear area B-score, replicate 1 = 0.144.
CG30020 [DRSC06252] scored droplet/nuclear area B-score, replicate 1 = 0.0278.
Against CG30020 [DRSC06730], the entry reads droplet/nuclear area B-score, replicate 1 = -0.253.
CG1416 [DRSC03706] gave droplet/nuclear area B-score, replicate 1 = 1.51.

Sorted by “droplet/nuclear area B-score, replicate 1” (ascending): some entries from above.
CRMP [DRSC12345] | droplet/nuclear area B-score, replicate 1 = 0.0381
Cpr76Bb [DRSC11061] | droplet/nuclear area B-score, replicate 1 = 1.98
